Measured values published in PubChem BioAssay AID504847 (National Center for Advancing Translational Sciences (NCATS), 2011).
Where “and” joins values, the source holds several entries; their conditions need not be identical. Equal entries are not always repeated. Hit rate of the full screen: of about 400,000 compounds, about 3,700 (0.93%) were called active. The shares of active, inactive and inconclusive entries below differ from those in the screen. Calls follow the shape of the dose curve; as a rule, active = well fitted inhibition curve with a large enough effect; inconclusive = small, poorly fitted or top-dose-only effect, or another doubt; inactive = no such curve, though single readings can be large or run the other way. Potencies of inconclusive entries are doubtful fits and often do not repeat.

Protein sequences, listed by entry. Tags and fused reporters are not part of them. Lines headed by an entry give the natural chain unless they say otherwise; changes in a name come on top.
UniProt P11473: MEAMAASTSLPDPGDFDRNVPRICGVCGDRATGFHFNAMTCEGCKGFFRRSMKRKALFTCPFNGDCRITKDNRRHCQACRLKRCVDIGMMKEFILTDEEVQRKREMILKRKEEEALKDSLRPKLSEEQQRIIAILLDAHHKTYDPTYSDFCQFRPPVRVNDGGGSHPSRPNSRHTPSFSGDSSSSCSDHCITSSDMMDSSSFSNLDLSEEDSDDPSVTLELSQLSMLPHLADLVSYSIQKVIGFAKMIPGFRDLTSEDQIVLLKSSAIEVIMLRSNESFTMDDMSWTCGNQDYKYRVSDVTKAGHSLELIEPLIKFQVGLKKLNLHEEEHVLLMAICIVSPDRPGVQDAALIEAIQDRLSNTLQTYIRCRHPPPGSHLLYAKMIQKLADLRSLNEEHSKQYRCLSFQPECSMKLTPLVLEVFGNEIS

molecular target: Vitamin D3 receptor (Homo sapiens) (UniProt P11473); assay: Inhibitors of the vitamin D receptor (VDR): qHTS; conditions: VDR-SRC2-3 peptide fluorescence polarization, 2 h; max response, negative = inhibition: hits give low values
How it was run: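 Inhibition of the VDR/SRC2-3 peptide interaction is quantified by fluorescence polarization. Compounds (23 nl, pintool) incubate with the reagents for 2 hours at ambient room temperature.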
% is scaled to controls: 0 for no effect and ±100 for the full control effect; potency is read from the fitted curve at half-maximal effect.

Max response, negative = inhibition, inactive:
COc1ccc(-c2ccc3c(N)c(C(=O)NC(C)C)sc3n2)cc1OC 2.27%
COc1ccc(S(=O)(=O)N2CCC(c3ccncc3)CC2)cc1Cl 2.55%
Cc1ccc(S(=O)(=O)n2cnc3ccccc32)cc1 -1.82%
C[C@@H]1O[C@@H](Oc2c(-c3cc(O)c(O)c(O)c3)oc3cc(O)cc(O)c3c2=O)[C@H](O)[C@H](O)[C@H]1O -3.19% and -14.7%
O=C(CN1CCOCC1)Nc1ncc(Br)cc1Br -7.07%
CCN(CC)c1ccc(CNc2nc3ccccc3n2CCN2CCCCC2)cc1 7.23%
COc1ccccc1C(=O)NCCC(=O)Nc1nc2ccccc2[nH]1 -9.29%
Cc1nn(-c2ccccc2)c(Cl)c1/C=C1\SC(=S)NC1=O -20.6%
COc1cc2c(cc1OC)-c1cc(NCc3ccccn3)nc(=O)n1CC2 -15%
Cc1c(C(=O)N(Cc2ccccc2)C(C)C)oc2ccc(S(=O)(=O)N3CCOCC3)cc12 -11.7%
CCSc1ncnc2sc3c(c12)CCC3 4.87%
CCN(CC)S(=O)(=O)c1ccc(NC(=O)[C@H](CSCc2ccccc2)N2Cc3ccccc3C2=O)cc1 -9.77%
O=C(Cc1ccccc1)Nc1ccccc1N1CCOCC1 3.21%
Cc1ccc(C)c(N2CCN(c3nc4ccccc4c4nc(CCn5nc(C)cc5C)nn34)CC2)c1 -8.55%
COc1ccc(CCNS(=O)(=O)c2cc3c4c(c2)CC(=O)N4CCC3)cc1 -6.63%
CC(Sc1cccc[n+]1[O-])C(=O)NC1CCCCC1C (stereo not given) -16.7%
COc1ccccc1Sc1ccccc1/C=N/NC(N)=O 5.45%
Cc1ccc(NC(=O)C2CCN(S(=O)(=O)c3cccs3)CC2)cc1C 7.88%
Cc1ccc(-c2noc(-c3ccc(NC4CCCC4)c([N+](=O)[O-])c3)n2)cc1 2.98%
CC(C)(C)OC(=O)N1CCC(c2nnc(SCc3ccccc3Cl)o2)CC1 0.823%

3 structures out of the list, ordered by molecular weight, largest number first.
Max response, negative = inhibition, inactive:
CC(C)(C)OC(=O)N1CCC(c2nnc(SCc3ccccc3Cl)o2)CC1 0.823%
CCN(CC)c1ccc(CNc2nc3ccccc3n2CCN2CCCCC2)cc1 7.23%
O=C(Cc1ccccc1)Nc1ccccc1N1CCOCC1 3.21%

Following part:

Potency, active:
O=C(NCCc1ccccc1)c1ccc2c(=O)[nH]c3c(C(=O)NCC4CCCO4)sc(=S)n3c2c1 (stereo not given) 79.4 µM
CCS(=O)(=O)C1=NSC2=NC(=O)/C(=C\c3ccc(OS(=O)(=O)c4ccccc4)c(OC)c3)C(=N)N21 50.1 µM
O=C(O)Cc1sc(Nc2ccccc2)nc1-c1cccs1 79.4 µM
COc1ccccc1NS(=O)(=O)c1cc(NC(=O)c2cccs2)ccc1N1CCCC1 22.4 µM

Potency, inconclusive:
CCO[C@H]1OC(C(=O)N2CCN(Cc3ccc4c(c3)OCO4)CC2)=C[C@@H](C(C)(C)C)[C@@H]1CCCO 89.1 µM [inhibitor, single point]
CC1CC=CC2C1C(=O)N(Cc1ccccc1)C2c1ccc(F)c(Br)c1 (stereo not given) 63.1 µM [inhibitor, partial curve, poor fit]
COc1ccc([N+](=O)[O-])cc1NC(=O)C(C)OC(=O)CC1CCCC1 (stereo not given) 12.6 µM [inhibitor, partial curve, poor fit]
O=c1c(O)c(-c2ccc(O)c(O)c2)oc2c(OC3OC(CO)C(O)C(O)C3O)c(O)cc(O)c12 (stereo not given) 79.4 µM [inhibitor, single point]
Cc1ccc(-c2nc3[nH]c(=O)cc(NC(=O)C(C)C)n3n2)cc1 12.6 µM [inhibitor, partial curve]
COc1ccc2[nH]c3c(c2c1)CCN1C(=O)C(CC(=O)NCc2ccc(OC)c(OC)c2)C[C@H](C(=O)N2CCOCC2)[C@@]31CCC1CCCC1 (stereo not given in full) 89.1 µM [inhibitor, single point]
Cc1cc(C)n(CC(=O)NNC(=O)CCCOc2ccc(Cl)c(C)c2)n1 50.1 µM [inhibitor, partial curve, poor fit]
CCCCCCCc1cc2c(cn1)C(=O)C(C)(OC(C)=O)C(O)=C2Cl (stereo not given) 79.4 µM [inhibitor, single point]
CCOc1ccc(CNC(=O)C2CCCN(c3nc4c(C)cc(C)cc4s3)C2)cc1 (stereo not given) 89.1 µM [inhibitor, single point]
O=C(O)c1cccc(Cn2c(Cl)c(/C=N/Nc3ccccc3)sc2=O)c1 79.4 µM [inhibitor, partial curve, poor fit]
Cc1cc2nc(-c3ccc(SCC(=O)Nc4nccs4)nc3)[nH]c2cc1C 89.1 µM [inhibitor, single point]
COc1cc(/C=C2/SC(=S)N(CC(=O)O)C2=O)ccc1OC(=O)c1cccs1 56.2 µM [inhibitor, partial curve, poor fit]
CC(=O)Nc1c2c(nn1-c1ccccc1C)CS(=O)C2 (stereo not given) 89.1 µM [inhibitor, partial curve]
Cc1ccnc(NC(c2ccccc2)c2ccc3cccnc3c2O)c1 (stereo not given) 28.2 µM [inhibitor, partial curve, poor fit]
Cc1cc(C(=O)N/N=C2\CC(=O)CC(C)(C)C2)c(C)n1-c1ccc(F)cc1 89.1 µM [inhibitor, single point]
CCCc1nnc(NC(=O)c2c(O)c3cccc4c3n(c2=O)CCC4)s1 100 µM [inhibitor, single point]
Cc1sc(NC(=O)C2=COCCO2)c(C#N)c1C 50.1 µM [inhibitor, partial curve, poor fit]
O=C(Nc1ccc2c(c1)CCC2)C1CCN(c2c3c(nc4ncnn24)CCC3)CC1 89.1 µM [inhibitor, partial curve, poor fit]
Cc1ccc(-n2c(CCC(=O)O)ccc2-c2cccs2)cc1C 79.4 µM [inhibitor, partial curve, poor fit]
O=C(O)CN1C(=O)N/C(=C\c2cccn2-c2ccc(P(=O)(O)O)cc2)C1=O 100 µM [inhibitor, single point]
O=c1[nH]c(=S)c2ncn(-c3ccccc3)c2[nH]1 39.8 µM [inhibitor, partial curve, poor fit]
O=C1CCCN1CC(O)CS(=O)(=O)Cc1ccc(Cl)cc1Cl (stereo not given) 20 µM [inhibitor, partial curve, poor fit]
COc1ccc(CNc2nc3ccccc3n2C(C)C)cc1 56.2 µM [inhibitor, partial curve, poor fit]
Cc1ccc(S(=O)(=O)Nc2ccc(-c3cn4ccc(C)cc4n3)cc2)cc1 39.8 µM [inhibitor, single point]
Cc1ccc(NC(=S)NNC(=O)c2c(Cl)c(C)nn2C)cc1 89.1 µM [inhibitor, single point]
COc1cccc(-n2c(SCC(=O)NC3CCS(=O)(=O)C3)nc3ccccc3c2=O)c1 (stereo not given) 89.1 µM [inhibitor, partial curve]
COc1cccc(C(=O)c2c[nH]c(C(=O)NCCCN3CCOCC3)c2)c1 8.91 µM [inhibitor, single point]
CCc1nnc(N/N=C/c2ccc(O)c(OC)c2)n1N 0.631 µM [inhibitor, full curve, poor fit]
COc1ccc(/C=C/C(=O)c2c(O)c(OC)c3occc3c2OC)cc1 39.8 µM [inhibitor, single point]
CSc1ccc(S(=O)(=O)N(CC(=O)NCc2ccccn2)c2ccc(C)cc2)cc1 31.6 µM [inhibitor, single point]
O=C(c1ccc(-c2cccc(C(F)(F)F)c2)o1)N1CCCCCCC1 89.1 µM [inhibitor, single point]
NCc1ccc2[nH]c(=O)[nH]c2c1 70.8 µM [inhibitor, single point]
COc1cccc(CNC(=O)C2Cc3ccccc3CN2C(C)=O)c1 (stereo not given) 79.4 µM [inhibitor, single point]
CN(Cc1c(C(=O)N2CCCCCCC2)nc2ccc(Cl)cn12)C1CCOC1 (stereo not given) 89.1 µM [inhibitor, single point]
NC(N)=NS(=O)(=O)c1ccc(NC(=S)NC(=O)/C=C/c2ccccc2)cc1 89.1 µM [inhibitor, partial curve, poor fit]
O=c1c(Cl)c(Cl)cnn1Cc1nnc(-c2ccccc2Br)o1 35.5 µM [inhibitor, partial curve, poor fit]
Cc1ccc(NC(=O)CCCCCN2C(=O)c3ccccc3C2=O)nc1 8.91 µM [inhibitor, partial curve, poor fit]
CC1=CC(=NOC(=O)/C=C/c2ccccc2)C=C(C)C1=O 25.1 µM [inhibitor, partial curve]
Cc1ccc(S(=O)(=O)N/N=C\c2cc3c(cc2[N+](=O)[O-])OCO3)cc1 56.2 µM [inhibitor, partial curve, poor fit]
CCCN1CC(=O)N2Cc3[nH]c4ccccc4c3C[C@H]2C1=O 63.1 µM [inhibitor, partial curve, poor fit]
COc1ccc(-c2csc(NC(C)=O)n2)cc1OC 63.1 µM [inhibitor, partial curve, poor fit]

For reference, 3 of the compounds above.
Potency, inconclusive:
Cc1ccc(-c2nc3[nH]c(=O)cc(NC(=O)C(C)C)n3n2)cc1 12.6 µM [inhibitor, partial curve]
COc1ccc2[nH]c3c(c2c1)CCN1C(=O)C(CC(=O)NCc2ccc(OC)c(OC)c2)C[C@H](C(=O)N2CCOCC2)[C@@]31CCC1CCCC1 (stereo not given in full) 89.1 µM [inhibitor, single point]
Cc1cc(C)n(CC(=O)NNC(=O)CCCOc2ccc(Cl)c(C)c2)n1 50.1 µM [inhibitor, partial curve, poor fit]
